# Assay results taken from the supplement of paper PMC3047530.
# Some of the results follow. Single values are uncertain, as repeats are few or missing.
# System: Geomyces destructans
# Test: growth inhibition relative to DMSO control; higher = stronger growth inhibition
# Conditions: 10 µM; 15 °C; incubation time 10 days
row,SMILES,growth inhibition
1,COc1ccccc1-c1cc(=O)c2c(OC)cccc2o1,2.21%
2,COC(=O)Nc1nc2cc(Sc3ccccc3)ccc2[nH]1,-21.1%
3,CN1CCN(CC(=O)N2c3ccccc3C(=O)Nc3cccnc32)CC1,-25.5%
4,Clc1cccc(Cl)c1NC1=NCCN1,-12.4%
5,N=C(N)NCCCCNC(=N)N,-16.2%
6,O=C1CCCCC/C=C\CCCCCCCCO1,-41.6%
7,CCN(CC)C(C)CN1c2ccccc2Sc2ccccc21 (stereo not given),-28.2%
8,CCCNC(=O)NS(=O)(=O)c1ccc(Cl)cc1,-9.07%
9,CNCCc1ccccn1,-28.5%
10,NCCCCCC(=O)O,-31.1%
11,C=CC(C)(C)c1c2c(c(O)c3c(=O)c4ccc(O)c(O)c4oc13)C=CC(C)(C)O2,-6.06%
12,NC1(C(=O)O)CC1,-41.8%
13,Oc1cc2c(cc1O)C1c3ccc(O)c(O)c3OCC1(O)C2 (stereo not given),-14.1%
14,C[C@H]1[C@H](C)CC[C@]2(C(=O)O)CC[C@]3(C)C(=CC[C@@H]4[C@@]5(C)CC[C@H](O)C(C)(C)[C@@H]5CC[C@]43C)[C@H]12,-3.15%
15,Oc1ccc2c(c1)OC[C@H]1c3cc4c(cc3O[C@@H]21)OCO4,4.48%
16,CC(=O)[C@@]1(O)CC[C@H]2[C@@H]3CCC4=CC(=O)CC[C@]4(C)[C@H]3CC[C@@]21C,-0.558%
17,O=C1NCC2(CCN(CCc3ccccc3)CC2)O1,-30.9%
18,CN(C)CCOC(c1ccccc1)c1ccccc1.Cn1c(=O)c2[nH]c(Cl)nc2n(C)c1=O,-4.04%
19,C[C@@H]1CC[C@@]23CCC4(C)[C@@](C=CC5[C@@]6(C)CC[C@H](O)C(C)(C)C6CC[C@]54C)(OC2=O)C3[C@H]1C (stereo not given in full),-1.32%
20,COc1cc2oc(=O)c3oc4c5c(ccc4c(=O)c3c2cc1OC)OC(C)(C)CC5 [beta-DIHYDROROTENONE],4.5%
21,CSCC[C@H](NC=O)C(=O)N[C@@H](Cc1ccccc1)C(=O)O,-8.94%
22,CC(=O)O[C@@H]1C[C@H]2C(C)(C)C(=O)C=C[C@]2(C)[C@H]2CC[C@@]3(C)[C@H](c4ccoc4)OC(=O)[C@H]4O[C@]43[C@@]21C,7.51%
23,CC(NCCc1ccc(O)cc1)C(O)c1ccc(O)cc1 (stereo not given),-5.9%
24,CCC1(C)CC(=O)NC1=O (stereo not given),-9.42%
25,CC1(C)CC2C1CC[C@]1(CBr)CCC3C(CC(=O)O)C(=O)O[C@@]32C1 (stereo not given in full) [BROMO-3-HYDROXY-4- (SUCCIN-2-YL)-CARYOLANE gamma-LACTONE],-14.2%

row,SMILES,growth inhibition
1,CC(=O)Oc1ccc(C(c2ccc(OC(C)=O)cc2)c2ccccn2)cc1,-39.3%
2,CCC(C)(C)C(=O)O[C@H]1C[C@@H](C)C=C2C=C[C@H](C)[C@H](CC[C@@H]3C[C@@H](O)CC(=O)O3)[C@H]21,-25.5%
3,CCCc1nn(C)c2c(=O)[nH]c(-c3cc(S(=O)(=O)N4CCN(C)CC4)ccc3OCC)nc12,-37.2%
4,COc1cc(O)c(C(=O)/C=C/c2ccccc2)c(OC)c1,3.7%
5,NNC(=O)c1ccncc1.Nc1ccc(C(=O)O)c(O)c1,-10.9%
6,O=C1CC[C@]23/C=C/C(=O)NCCCCNCCCNC(=O)/C=C/c4ccc(c2c4)O[C@@H]3C1,-3.17%
7,O=C1O[C@H]([C@@H](O)CO)C(O)=C1O,-2.93%
8,Clc1ccc(C(c2ccccc2Cl)C(Cl)Cl)cc1 (stereo not given),-2.56%
9,CSCCC(NC=O)C(=O)NC(C)C(=O)O (stereo not given),-8.94%
10,O=C(O)c1ccccc1Nc1cccc(C(F)(F)F)c1,-5.92%
11,Cc1cc(=O)c2c(O)cc(O)c(C)c2o1,-1.67%
12,Nc1ccc(C(=O)O)c(O)c1,-3.24%
13,C[C@@H]1CC[C@@]2(OC1)O[C@H]1C[C@H]3[C@@H]4CC=C5C[C@@H](O)CC[C@]5(C)[C@H]4CC[C@]3(C)[C@H]1[C@@H]2C,9.31%
14,Nc1nc(/C(=C/CC(=O)O)C(=O)N[C@@H]2C(=O)N3C(C(=O)O)=CCS[C@H]23)cs1,-21.1%
15,CC(C)CCC[C@@H](C)[C@H]1CC[C@H]2[C@@H]3CC[C@@H]4C[C@H](O)CC[C@]4(C)[C@H]3CC[C@]12C,-2.99%
16,NCCCS(=O)(=O)O,-33.4%
17,O=C(/C=C/c1ccccc1)c1ccc(O)cc1,20.7%
18,CC1=CC(=O)C2=C(C)CC[C@@H]3[C@H](OC(=O)[C@H]3C)[C@@H]12,4.96%
19,CN(C)CCOC(=O)C(c1ccccc1)C1(O)CCCC1 (stereo not given),-5.29%
20,Nc1ccc(/N=N/c2ccccc2)c(N)n1,-12.5%
21,CCCCC(=O)N(Cc1ccc(-c2ccccc2-c2nnn[nH]2)cc1)[C@H](C(=O)O)C(C)C,4.84%
22,C[C@H]1C(=O)CC[C@@H]2[C@]1(C)CC[C@H]1[C@@]2(C)CC[C@@]2(C)[C@@H]3CC(C)(C)CC[C@]3(C)CC[C@]12C,-16.9%
23,OC(CCN1CCCCC1)(c1ccccc1)c1ccccc1,-8.62%
24,CCN(CC)CCNC(=O)c1cc(Br)c(N)cc1OC,-3.78%
25,O=c1c(O)cccc2c([C@H]3Oc4cc(O)cc(O)c4C[C@H]3O)cc(O)c(O)c12,82.5%

# An excerpt of these results, with bars between the fields:
row | SMILES | growth inhibition
20 | COc1cc2oc(=O)c3oc4c5c(ccc4c(=O)c3c2cc1OC)OC(C)(C)CC5 [beta-DIHYDROROTENONE] | 4.5%
21 | CSCC[C@H](NC=O)C(=O)N[C@@H](Cc1ccccc1)C(=O)O | -8.94%
22 | CC(=O)O[C@@H]1C[C@H]2C(C)(C)C(=O)C=C[C@]2(C)[C@H]2CC[C@@]3(C)[C@H](c4ccoc4)OC(=O)[C@H]4O[C@]43[C@@]21C | 7.51%
23 | CC(NCCc1ccc(O)cc1)C(O)c1ccc(O)cc1 (stereo not given) | -5.9%
24 | CCC1(C)CC(=O)NC1=O (stereo not given) | -9.42%
25 | CC1(C)CC2C1CC[C@]1(CBr)CCC3C(CC(=O)O)C(=O)O[C@@]32C1 (stereo not given in full) [BROMO-3-HYDROXY-4- (SUCCIN-2-YL)-CARYOLANE gamma-LACTONE] | -14.2%
1 | CC(=O)Oc1ccc(C(c2ccc(OC(C)=O)cc2)c2ccccn2)cc1 | -39.3%
2 | CCC(C)(C)C(=O)O[C@H]1C[C@@H](C)C=C2C=C[C@H](C)[C@H](CC[C@@H]3C[C@@H](O)CC(=O)O3)[C@H]21 | -25.5%
3 | CCCc1nn(C)c2c(=O)[nH]c(-c3cc(S(=O)(=O)N4CCN(C)CC4)ccc3OCC)nc12 | -37.2%
4 | COc1cc(O)c(C(=O)/C=C/c2ccccc2)c(OC)c1 | 3.7%
